About 5,400 (1.8%) of roughly 300,000 compounds were called active. The inconclusive results got no clear call from the source; some entries with a clear call stand among them for comparison. Calls follow the shape of the full dose curve; tested in HEK293 cells. A potency beside an inconclusive call is a rough fit, not a confirmed value.
assay: qHTS for inhibitors of binding or entry into cells for Marburg Virus; conditions: Marburg virus pseudotyped entry inhibition, cell reporter; series mostly up to 37.8 µM
Potency is read from the fitted curve at half-maximal effect.

Compound | Potency
Cc1nc(SCC(=O)N2CCc3ccccc3C2)c2c(C)c(C)sc2n1 | inconclusive: 29.1 µM [inhibitor, single point]
CNC(=O)c1sccc1SCc1c(Cl)cccc1Cl | inconclusive: 3.98 µM [inhibitor, partial curve, poor fit]
CCCn1nnnc1NC(=O)c1cccs1 | inactive
COCc1ccc(C(=O)N(C)CC2CCCN(CCc3ccc(OC)cc3)C2)o1 (stereo not given) | inconclusive: 3.55 µM [activator, partial curve, poor fit]
Brc1ccc(CSc2nnc(-c3ccco3)o2)cc1 | inconclusive: 6.31 µM [inhibitor, single point]
Cc1cccc(Nc2nc(N)nc(CSc3nccc(C)n3)n2)c1 | inconclusive: 8.91 µM [activator, partial curve, poor fit]
O=C(c1cc2c(s1)-c1ccccc1OC2)N1CCN(c2ccccc2F)CC1 | inconclusive: 3.55 µM [activator, single point]
Cc1cccc2sc(NC(=O)CN3C(=O)C4CC=CCC4C3=O)nc12 (stereo not given) | inactive
CCOC(=O)c1cocc1C(=O)O | inconclusive: 5.62 µM [activator, full curve, poor fit]
Cc1cccc(N2CCN(C(=O)c3ccccc3SCC(=O)N3CCCC3)CC2)c1C | inconclusive: 35.5 µM [inhibitor, single point]
CC(C)n1nnnc1SCC(=O)NC1CCCC1 | inactive
Cc1ccc(NC(=O)N2Cc3ccccc3CC2C(=O)NC(C)(C)C)cc1 (stereo not given) | inactive
CCCC(C)NC(=O)COc1ccc(S(=O)(=O)c2ccc(OCC(=O)NC(C)CCC)cc2)cc1 (stereo not given) | inconclusive: 23.1 µM [inhibitor, single point]
CCC1CN1P(=O)(Oc1ccc(Cl)cc1)N1CC1CC (stereo not given) | inconclusive: 10 µM [inhibitor, partial curve]
C=CCNc1nnc(SC2CC(=O)N(c3ccc(OCCC)cc3)C2=O)s1 (stereo not given) | inconclusive: 35.5 µM [inhibitor, single point]
Oc1ccc(/C=C/c2ccc(/C=C/c3ccc(O)cc3)c(Br)c2)cc1 | inactive
CCNC(=O)c1ccc(=O)n(Cc2ccc(Cl)cc2Cl)c1 | inconclusive: 1 µM [activator, full curve, poor fit]
Cc1ccc(NC(=O)c2cccc3c2C(=O)N(C2CCCCC2)C3)c(C)c1 | inactive
Cc1cccc(-c2noc(-c3ccc(Cl)cc3[N+](=O)[O-])n2)c1 | inconclusive: 35.5 µM [inhibitor, single point]
N=c1c2c(-c3ccccc3)c(-c3ccccc3)n(Cc3ccco3)c2ncn1CCCn1ccnc1 | active: 3.55 µM

2 successive compounds from above, quoted:
Compound | Potency
CCOC(=O)c1cocc1C(=O)O | inconclusive: 5.62 µM [activator, full curve, poor fit]
Cc1cccc(N2CCN(C(=O)c3ccccc3SCC(=O)N3CCCC3)CC2)c1C | inconclusive: 35.5 µM [inhibitor, single point]

Reference: PubChem BioAssay AID540276 (National Center for Advancing Translational Sciences (NCATS), 2011)
